Experimental data reported in the supplement of paper PMC10849652.
Some of the results follow.

Amino acid sequences for entries named in this document (tags omitted). A change or cut given only in a name is not applied to a line headed by its entry.
UniProt O75208: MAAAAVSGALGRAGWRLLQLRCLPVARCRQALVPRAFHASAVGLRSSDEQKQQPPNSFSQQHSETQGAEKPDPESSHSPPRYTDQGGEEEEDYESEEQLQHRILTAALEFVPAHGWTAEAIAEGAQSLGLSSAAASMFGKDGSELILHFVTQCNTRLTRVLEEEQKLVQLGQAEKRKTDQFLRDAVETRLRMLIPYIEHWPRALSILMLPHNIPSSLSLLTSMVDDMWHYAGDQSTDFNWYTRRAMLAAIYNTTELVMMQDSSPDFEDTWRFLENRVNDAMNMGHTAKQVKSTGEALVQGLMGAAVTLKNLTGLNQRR
UniProt Q92905, whole entry, looked up: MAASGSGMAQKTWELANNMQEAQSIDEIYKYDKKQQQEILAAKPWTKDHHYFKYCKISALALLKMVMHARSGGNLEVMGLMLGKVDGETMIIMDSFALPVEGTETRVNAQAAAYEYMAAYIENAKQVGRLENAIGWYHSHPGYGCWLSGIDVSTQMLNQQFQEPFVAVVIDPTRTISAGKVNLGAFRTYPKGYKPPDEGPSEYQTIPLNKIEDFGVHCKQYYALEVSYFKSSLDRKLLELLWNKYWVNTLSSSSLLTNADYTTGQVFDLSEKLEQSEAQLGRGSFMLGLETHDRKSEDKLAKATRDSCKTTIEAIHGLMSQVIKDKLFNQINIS
UniProt Q9UBG3: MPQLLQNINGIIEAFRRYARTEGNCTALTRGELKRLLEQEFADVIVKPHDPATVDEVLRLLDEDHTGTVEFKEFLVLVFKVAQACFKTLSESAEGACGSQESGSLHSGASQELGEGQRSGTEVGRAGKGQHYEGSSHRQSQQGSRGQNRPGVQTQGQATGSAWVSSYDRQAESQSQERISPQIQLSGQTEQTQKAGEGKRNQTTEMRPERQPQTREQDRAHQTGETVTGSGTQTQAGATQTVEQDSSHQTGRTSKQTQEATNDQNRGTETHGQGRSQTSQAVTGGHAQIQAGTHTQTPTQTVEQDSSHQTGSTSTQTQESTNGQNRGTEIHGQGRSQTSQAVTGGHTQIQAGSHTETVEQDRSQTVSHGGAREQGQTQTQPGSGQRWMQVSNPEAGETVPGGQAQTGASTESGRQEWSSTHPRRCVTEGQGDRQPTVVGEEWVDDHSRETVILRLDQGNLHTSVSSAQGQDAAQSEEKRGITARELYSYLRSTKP
UniProt Q9NQ92: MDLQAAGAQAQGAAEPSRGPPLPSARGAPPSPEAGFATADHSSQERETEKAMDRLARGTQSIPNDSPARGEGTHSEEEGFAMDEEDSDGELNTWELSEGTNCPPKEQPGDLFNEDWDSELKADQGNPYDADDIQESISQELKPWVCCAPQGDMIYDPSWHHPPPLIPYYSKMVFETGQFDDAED
UniProt Q9BRF8, whole entry, looked up: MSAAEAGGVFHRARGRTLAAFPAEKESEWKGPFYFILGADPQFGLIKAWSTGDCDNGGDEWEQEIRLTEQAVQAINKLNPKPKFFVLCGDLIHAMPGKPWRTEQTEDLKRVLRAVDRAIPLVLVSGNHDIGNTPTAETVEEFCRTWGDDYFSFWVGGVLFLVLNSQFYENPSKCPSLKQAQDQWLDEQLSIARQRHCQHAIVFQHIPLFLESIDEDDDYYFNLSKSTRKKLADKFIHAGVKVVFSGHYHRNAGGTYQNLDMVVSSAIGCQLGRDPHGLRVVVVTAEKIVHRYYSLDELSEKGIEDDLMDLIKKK
UniProt Q7Z5Q1: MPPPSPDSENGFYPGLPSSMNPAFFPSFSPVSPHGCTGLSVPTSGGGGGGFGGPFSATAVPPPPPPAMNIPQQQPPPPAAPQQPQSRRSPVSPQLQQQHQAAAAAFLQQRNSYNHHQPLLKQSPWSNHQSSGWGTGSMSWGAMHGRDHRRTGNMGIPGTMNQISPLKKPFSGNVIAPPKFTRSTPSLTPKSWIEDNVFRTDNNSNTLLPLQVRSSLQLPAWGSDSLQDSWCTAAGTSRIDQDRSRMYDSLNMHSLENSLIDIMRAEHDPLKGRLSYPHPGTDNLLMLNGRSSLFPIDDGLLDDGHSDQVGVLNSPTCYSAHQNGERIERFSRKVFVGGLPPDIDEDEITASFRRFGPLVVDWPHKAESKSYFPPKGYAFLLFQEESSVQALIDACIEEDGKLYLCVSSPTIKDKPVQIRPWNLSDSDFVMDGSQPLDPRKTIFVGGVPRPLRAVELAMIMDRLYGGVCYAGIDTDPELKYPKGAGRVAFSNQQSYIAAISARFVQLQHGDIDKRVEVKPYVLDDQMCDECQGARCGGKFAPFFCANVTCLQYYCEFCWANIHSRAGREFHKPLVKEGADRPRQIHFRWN
UniProt P14406, whole entry, looked up: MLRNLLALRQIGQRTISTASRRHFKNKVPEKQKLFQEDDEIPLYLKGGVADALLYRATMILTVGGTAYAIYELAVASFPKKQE
UniProt P10606, whole entry, looked up: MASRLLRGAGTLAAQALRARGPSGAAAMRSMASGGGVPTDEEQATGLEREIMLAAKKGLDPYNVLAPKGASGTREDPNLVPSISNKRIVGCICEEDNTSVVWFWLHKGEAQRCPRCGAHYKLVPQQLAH
UniProt Q86X83, whole entry, looked up: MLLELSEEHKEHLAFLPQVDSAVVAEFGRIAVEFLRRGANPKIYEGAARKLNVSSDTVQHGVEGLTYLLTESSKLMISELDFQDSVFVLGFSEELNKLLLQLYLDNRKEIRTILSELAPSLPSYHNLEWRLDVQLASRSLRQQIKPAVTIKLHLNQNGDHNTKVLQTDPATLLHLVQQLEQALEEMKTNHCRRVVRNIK
UniProt Q5RI15: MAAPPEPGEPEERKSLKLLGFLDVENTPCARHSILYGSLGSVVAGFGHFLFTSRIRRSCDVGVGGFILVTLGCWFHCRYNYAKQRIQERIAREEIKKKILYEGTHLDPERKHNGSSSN
UniProt Q9Y678: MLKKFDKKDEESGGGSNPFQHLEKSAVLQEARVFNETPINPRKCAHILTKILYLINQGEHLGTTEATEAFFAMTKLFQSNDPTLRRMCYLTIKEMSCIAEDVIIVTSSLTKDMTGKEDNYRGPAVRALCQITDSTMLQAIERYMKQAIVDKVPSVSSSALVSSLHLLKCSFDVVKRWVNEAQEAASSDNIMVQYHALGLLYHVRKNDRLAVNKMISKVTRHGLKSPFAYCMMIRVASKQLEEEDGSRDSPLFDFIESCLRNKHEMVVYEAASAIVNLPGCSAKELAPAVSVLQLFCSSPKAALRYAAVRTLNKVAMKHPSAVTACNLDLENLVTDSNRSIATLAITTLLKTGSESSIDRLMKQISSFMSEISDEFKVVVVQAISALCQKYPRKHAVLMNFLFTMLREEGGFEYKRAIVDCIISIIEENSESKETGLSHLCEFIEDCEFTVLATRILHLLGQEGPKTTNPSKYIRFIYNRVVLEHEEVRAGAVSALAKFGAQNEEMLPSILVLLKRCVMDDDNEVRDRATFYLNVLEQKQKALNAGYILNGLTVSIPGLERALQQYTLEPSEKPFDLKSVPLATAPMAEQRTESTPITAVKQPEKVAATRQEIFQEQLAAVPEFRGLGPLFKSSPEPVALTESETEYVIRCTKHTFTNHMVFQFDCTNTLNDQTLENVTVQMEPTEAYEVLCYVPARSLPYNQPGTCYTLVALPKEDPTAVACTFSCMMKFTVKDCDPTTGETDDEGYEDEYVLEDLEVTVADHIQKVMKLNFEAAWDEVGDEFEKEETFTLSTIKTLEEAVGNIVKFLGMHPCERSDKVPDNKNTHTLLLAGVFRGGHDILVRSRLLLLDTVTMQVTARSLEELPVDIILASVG
UniProt Q5TZA2: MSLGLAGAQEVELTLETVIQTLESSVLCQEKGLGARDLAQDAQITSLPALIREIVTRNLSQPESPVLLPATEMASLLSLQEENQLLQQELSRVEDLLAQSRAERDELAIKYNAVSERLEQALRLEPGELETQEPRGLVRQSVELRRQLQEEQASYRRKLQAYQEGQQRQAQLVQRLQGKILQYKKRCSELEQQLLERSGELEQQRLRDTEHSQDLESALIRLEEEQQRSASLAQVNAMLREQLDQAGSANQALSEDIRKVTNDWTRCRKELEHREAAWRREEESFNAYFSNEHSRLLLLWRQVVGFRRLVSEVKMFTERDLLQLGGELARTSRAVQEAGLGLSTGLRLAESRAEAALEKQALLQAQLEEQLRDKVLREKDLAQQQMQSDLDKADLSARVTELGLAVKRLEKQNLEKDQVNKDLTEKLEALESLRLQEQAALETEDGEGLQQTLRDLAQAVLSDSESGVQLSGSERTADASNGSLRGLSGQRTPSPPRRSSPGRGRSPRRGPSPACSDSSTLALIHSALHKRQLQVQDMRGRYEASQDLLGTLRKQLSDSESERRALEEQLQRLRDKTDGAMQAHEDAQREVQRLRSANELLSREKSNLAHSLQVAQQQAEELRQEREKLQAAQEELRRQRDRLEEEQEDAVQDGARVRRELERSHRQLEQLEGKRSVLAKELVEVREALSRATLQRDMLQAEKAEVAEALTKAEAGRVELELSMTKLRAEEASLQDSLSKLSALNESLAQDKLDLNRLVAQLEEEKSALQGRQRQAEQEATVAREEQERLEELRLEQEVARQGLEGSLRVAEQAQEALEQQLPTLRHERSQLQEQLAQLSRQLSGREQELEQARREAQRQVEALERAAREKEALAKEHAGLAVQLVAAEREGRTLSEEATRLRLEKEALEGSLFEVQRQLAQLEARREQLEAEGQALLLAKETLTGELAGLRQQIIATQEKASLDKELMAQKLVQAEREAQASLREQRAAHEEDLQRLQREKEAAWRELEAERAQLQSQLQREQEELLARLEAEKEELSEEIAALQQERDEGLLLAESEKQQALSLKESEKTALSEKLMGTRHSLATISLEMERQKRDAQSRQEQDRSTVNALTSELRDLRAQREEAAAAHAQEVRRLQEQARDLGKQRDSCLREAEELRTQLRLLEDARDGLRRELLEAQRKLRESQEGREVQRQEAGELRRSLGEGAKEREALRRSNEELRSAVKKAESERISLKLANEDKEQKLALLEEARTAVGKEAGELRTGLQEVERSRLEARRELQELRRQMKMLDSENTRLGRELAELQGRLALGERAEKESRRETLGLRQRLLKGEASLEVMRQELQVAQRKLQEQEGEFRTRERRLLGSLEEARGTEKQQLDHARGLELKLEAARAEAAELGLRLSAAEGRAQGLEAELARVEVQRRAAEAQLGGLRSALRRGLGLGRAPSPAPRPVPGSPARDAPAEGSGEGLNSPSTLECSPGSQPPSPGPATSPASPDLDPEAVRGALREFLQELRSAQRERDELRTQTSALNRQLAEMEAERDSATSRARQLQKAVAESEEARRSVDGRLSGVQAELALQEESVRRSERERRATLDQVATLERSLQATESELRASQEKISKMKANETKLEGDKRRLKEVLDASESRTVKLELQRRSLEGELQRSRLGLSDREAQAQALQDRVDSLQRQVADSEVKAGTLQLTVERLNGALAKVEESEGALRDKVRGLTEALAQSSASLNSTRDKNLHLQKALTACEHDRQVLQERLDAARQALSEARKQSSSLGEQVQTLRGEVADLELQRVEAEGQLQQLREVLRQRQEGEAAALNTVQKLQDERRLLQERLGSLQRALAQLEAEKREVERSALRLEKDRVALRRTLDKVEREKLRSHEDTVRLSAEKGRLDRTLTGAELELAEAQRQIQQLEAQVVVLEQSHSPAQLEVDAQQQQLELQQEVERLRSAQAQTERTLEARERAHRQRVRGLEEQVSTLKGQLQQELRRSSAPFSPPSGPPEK
UniProt Q9BR76, whole entry, looked up: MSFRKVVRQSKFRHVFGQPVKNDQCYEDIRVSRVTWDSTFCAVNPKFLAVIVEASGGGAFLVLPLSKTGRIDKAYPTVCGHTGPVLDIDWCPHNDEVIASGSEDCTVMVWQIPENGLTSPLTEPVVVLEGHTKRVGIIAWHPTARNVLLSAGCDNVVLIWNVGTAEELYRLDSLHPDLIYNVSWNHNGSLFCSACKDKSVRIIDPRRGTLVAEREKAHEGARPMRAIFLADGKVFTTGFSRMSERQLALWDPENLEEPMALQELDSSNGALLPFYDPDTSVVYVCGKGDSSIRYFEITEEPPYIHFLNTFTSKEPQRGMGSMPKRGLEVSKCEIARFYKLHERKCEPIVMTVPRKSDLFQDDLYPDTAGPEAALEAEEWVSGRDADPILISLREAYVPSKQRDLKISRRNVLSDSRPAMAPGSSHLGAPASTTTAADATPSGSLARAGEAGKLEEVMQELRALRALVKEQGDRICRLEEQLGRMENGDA
UniProt Q9UBI1, whole entry, looked up: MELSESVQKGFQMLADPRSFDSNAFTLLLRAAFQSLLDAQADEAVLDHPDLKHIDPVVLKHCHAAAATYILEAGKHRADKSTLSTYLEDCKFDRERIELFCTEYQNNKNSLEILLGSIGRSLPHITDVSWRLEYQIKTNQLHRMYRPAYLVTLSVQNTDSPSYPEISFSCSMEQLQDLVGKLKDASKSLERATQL
UniProt Q9Y6G5, whole entry, looked up: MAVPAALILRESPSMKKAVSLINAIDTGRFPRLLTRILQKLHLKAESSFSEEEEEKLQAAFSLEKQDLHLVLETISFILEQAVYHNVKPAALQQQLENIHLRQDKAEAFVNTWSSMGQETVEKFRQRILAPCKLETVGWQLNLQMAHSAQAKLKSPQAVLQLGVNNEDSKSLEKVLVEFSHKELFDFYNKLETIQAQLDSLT

Tests used:
Assay in all cases: log2 fold change, soluble protein after heating vs DMSO (PISA); higher = thermal stabilisation; K562 cells, 10 uM, 30 min; active = over 0.2 and 3.5 SD of the protein, either way, in both replicates (recomputed)
[1] = compound: C1=CC=C(C=C1)[C@H](COC2=CC3=C(C=C2)NC(=O)N3)NC(=O)C4=CC=CN(C4=O)CC5=CC(=C(C=C5)F)F
Summary of the method: (§1)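 K562 cells at 2×10^6 cells/mL were given 10 μM compound for 30 min. Aliquots then went through 3 min of heating across 48°C-58°C, were pooled, and were extracted in PBS with 0.5% NP-40 at 4°C, and the supernatant after 21,000xg for 90 min was quantified by TMTpro 16plex LC-MS/MS with channel sums equalised. Thermal stability relative to control samples, from duplicates, is given as log2 fold change.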

[2] = compound: CC1=C(SC2=C1C(=N[C@H](C3=NN=C(N32)C)CC(=O)N)C4=CC=C(C=C4)Cl)C
Summary of the method: as §1

[3] = compound: CC1=C2C(=CC=C1)N=C(N(C2=O)C3=CC=CC=C3C)CN4C=NC5=C(N=CN=C54)N
Summary of the method: as §1

[4] = compound: Cc1sc2c(c1C)C(c1ccc(Cl)cc1)=N[C@@H](CC(=O)OC(C)(C)C)c1nnc(C)n1-2
Summary of the method: as §1

[5] = compound: c1ccc([C@@H]2C[C@H]2NC2CCNCC2)cc1
Summary of the method: as §1

Measured: log2 fold change

CSNK1D (UniProt P48730)
inactive: [1] -0.08 | [2] -0.067 | [3] -0.192 | [4] -0.011 | [5] -0.015

CPQ (UniProt Q9Y646)
inactive: [1] 0.045 | [2] -0.077 | [3] -0.078 | [4] -0.031 | [5] 0.084

CSNK2A2 (UniProt P19784)
inactive: [1] -0.025 | [2] 0.08 | [3] 0.052 | [4] 0.028 | [5] 0.012

COPS3 (UniProt Q9UNS2)
inactive: [1] 0.011 | [2] 0.001 | [3] 0 | [4] -0.007 | [5] -0.005

COQ9 (UniProt O75208)
inactive: [1] -0.068 | [2] -0.025 | [3] 0.053 | [4] -0.081 | [5] 0.036

COQ7 (UniProt Q99807)
inactive: [1] -0.038 | [2] 0.016 | [3] 0.029 | [4] 0.014 | [5] 0.048

COPS5 (UniProt Q92905)
inactive: [1] -0.018 | [2] 0.041 | [3] -0.02 | [4] -0.056 | [5] -0.028

COPS8 (UniProt Q99627)
inactive: [1] 0.002 | [2] 0.086 | [3] 0.039 | [4] -0.123 | [5] -0.014

CRNN (UniProt Q9UBG3)
inactive: [1] 0.974

COL6A1 (UniProt P12109)
inactive: [1] 0 | [2] 0.096 | [3] 0.138 | [4] 0.032 | [5] -0.035

CSNK1G1 (UniProt Q9HCP0)
inactive: [1] 0.006

COLGALT1 (UniProt Q8NBJ5)
inactive: [1] 0.029 | [2] -0.062 | [3] -0.034 | [4] -0.013 | [5] -0.019

CROCCP2 (UniProt Q86T23)
inactive: [1] -0.452

CRACR2A isoform 2 (UniProt Q9BSW2)
inactive: [1] 0.045 | [2] 0.034 | [3] 0.078 | [4] 0.001 | [5] -0.023

CP (UniProt P00450)
inactive: [1] 0.169

COPRS (UniProt Q9NQ92)
inactive: [1] -0.044 | [2] 0.035 | [3] 0.006 | [4] -0.019 | [5] -0.018

COL1A2 (UniProt P08123)
inactive: [1] 0.133 | [2] -0.042 | [3] 0.134 | [4] 0.06 | [5] 0.051

CRK (UniProt P46108)
inactive: [1] 0 | [2] 0.013 | [3] 0.005 | [4] 0.028 | [5] -0.01

CPPED1 (UniProt Q9BRF8)
inactive: [1] -0.063 | [2] -0.009 | [3] 0.016 | [4] 0.018 | [5] 0.012

CRISP3 isoform 3 (UniProt P54108)
inactive: [1] -0.019

CPSF4 (UniProt O95639)
inactive: [1] 0.351

CS (UniProt F8VU34)
inactive: [1] -0.03

CPD (UniProt O75976)
inactive: [1] 0.008 | [2] 0.014 | [3] 0.044 | [4] -0.013 | [5] 0.053

CPEB2 isoform 9 (UniProt Q7Z5Q1)
inactive: [1] -0.075 | [2] 0.009 | [3] -0.296 | [4] -0.108 | [5] -0.012

COL25A1 (UniProt Q9BXS0)
inactive: [1] 0.058

COX7A2 (UniProt P14406)
inactive: [1] 0.021 | [2] 0.082 | [3] 0.044 | [4] -0.049 | [5] 0.064

Quoted at random: two records from the list, in no set order.
CS (UniProt F8VU34)
inactive: [1] -0.03

COL25A1 (UniProt Q9BXS0)
inactive: [1] 0.058

Remaining list, next part.

CSNK2B (UniProt P67870)
inactive: [1] -0.047 | [2] 0.043 | [3] 0 | [4] -0.028 | [5] 0.018

COX10 (UniProt Q12887)
inactive: [1] 0.018 | [2] 0.025 | [3] -0.021 | [4] 0.019 | [5] 0.053

CPNE2 (UniProt Q96FN4)
inactive: [1] -0.065 | [2] 0.036 | [3] 0 | [4] 0.088 | [5] -0.037

CORO1C isoform 3 (UniProt Q9ULV4)
inactive: [1] 0.002 | [2] -0.013 | [3] -0.011 | [4] 0.003 | [5] -0.001

CRYZ (UniProt Q08257)
inactive: [1] 0.025 | [2] 0.026 | [3] 0.059 | [4] -0.046 | [5] -0.012

CSNK1A1 isoform 3 (UniProt P48729)
inactive: [1] -0.061

COX5B (UniProt P10606)
inactive: [1] 0.015 | [2] 0.104 | [3] -0.006 | [4] -0.126 | [5] -0.099

CPS1 isoform 3 (UniProt P31327)
inactive: [1] -0.143 | [2] 0.135 | [3] 0.21 | [4] 0.032 | [5] -0.228

CSDE1 isoform 4 (UniProt O75534)
inactive: [1] 0.003 | [2] -0.088 | [3] -0.001 | [4] 0.194 | [5] 0.021

COMMD2 (UniProt Q86X83)
inactive: [1] -0.029 | [2] 0.053 | [3] 0 | [4] -0.199 | [5] 0.04

COLGALT2 (UniProt Q8IYK4)
inactive: [1] 0.061 | [2] -0.036 | [3] 0.003 | [4] 0.032 | [5] -0.035

COMMD9 (UniProt Q9P000)
inactive: [1] -0.088 | [2] 0.145 | [3] -0.011 | [4] -0.076 | [5] -0.092

CRPPA (UniProt A4D126)
inactive: [1] -0.002 | [2] 0.076 | [3] 0.028 | [4] -0.041 | [5] 0.02

CPNE1 (UniProt Q99829)
inactive: [1] -0.013 | [2] -0.005 | [3] 0.003 | [4] 0.022 | [5] 0.016

CRIPT (UniProt Q9P021)
inactive: [1] 0.024 | [2] -0.025 | [3] 0.122 | [4] -0.009 | [5] 0.024

COPS2 (UniProt P61201)
inactive: [1] 0.014 | [2] 0.036 | [3] 0.023 | [4] -0.029 | [5] 0.005

CRLF3 (UniProt Q8IUI8)
inactive: [1] -0.03 | [2] 0.045 | [3] 0.087 | [4] 0.088 | [5] -0.036

COMT (UniProt P21964)
inactive: [1] 0.024 | [2] 0.142 | [3] 0.09 | [4] -0.028 | [5] -0.038

COQ8A (UniProt Q8NI60)
inactive: [1] 0.001 | [2] 0.125 | [3] -0.063 | [4] -0.022 | [5] -0.011

CRMP1 isoform 2 (UniProt Q14194)
inactive: [1] -0.014 | [2] 0.074 | [3] -0.066 | [4] 0.002 | [5] -0.006

COX20 isoform 2 (UniProt Q5RI15)
inactive: [1] 0.071 | [2] 0.05 | [3] 0 | [4] -0.022 | [5] 0.042

CPVL (UniProt Q9H3G5)
inactive: [1] -0.011 | [2] 0.077 | [3] 0.135 | [4] 0.067 | [5] 0.056

COPG1 (UniProt Q9Y678)
inactive: [1] -0.008 | [2] 0.005 | [3] 0.031 | [4] -0.013 | [5] -0.024

COMMD5 (UniProt Q9GZQ3)
inactive: [1] -0.02 | [2] 0.09 | [3] -0.059 | [4] -0.067 | [5] -0.011

CPNE3 (UniProt O75131)
inactive: [1] -0.02 | [2] -0.031 | [3] -0.021 | [4] 0.01 | [5] 0.061

CROCC (UniProt Q5TZA2)
inactive: [1] -0.03 | [2] 0.03 | [3] 0.053 | [4] -0.036 | [5] -0.004

CORO1B (UniProt Q9BR76)
inactive: [1] -0.033 | [2] 0.053 | [3] 0.09 | [4] -0.022 | [5] -0.04

CREB3L2 (UniProt Q70SY1)
inactive: [1] 0.331 | [2] -0.15 | [3] 0.296 | [4] -0.143 | [5] -0.247

CRTC3 (UniProt Q6UUV7)
inactive: [1] -0.083 | [2] 0.044 | [3] -0.065 | [4] 0.004 | [5] 0.034

COX4I1 (UniProt P13073)
inactive: [1] 0.032 | [2] -0.016 | [3] -0.031 | [4] 0.004 | [5] 0.005

COMMD3 (UniProt Q9UBI1)
inactive: [1] -0.021 | [2] -0.028 | [3] 0.172 | [4] 0.083 | [5] 0.061

COMMD10 (UniProt Q9Y6G5)
inactive: [1] -0.023 | [2] 0.084 | [3] -0.018 | [4] -0.072 | [5] -0.074

Copied from above (3 entries):
CORO1B (UniProt Q9BR76)
inactive: [1] -0.033 | [2] 0.053 | [3] 0.09 | [4] -0.022 | [5] -0.04

CREB3L2 (UniProt Q70SY1)
inactive: [1] 0.331 | [2] -0.15 | [3] 0.296 | [4] -0.143 | [5] -0.247

CRTC3 (UniProt Q6UUV7)
inactive: [1] -0.083 | [2] 0.044 | [3] -0.065 | [4] 0.004 | [5] 0.034
